This is one part of the list.
compound: C1=CC2=C(C=CC(=C2)/C=C\3/C(=O)NC(=NCC4=CC=CS4)S3)N=C1; experiment: log2 fold change, soluble protein after heating vs DMSO (PISA); higher = thermal stabilisation; K562 lysate, 10 uM; active = over 0.2 and 3.5 SD of the protein, either way, in both replicates (recomputed)
Procedure, shortened: (§1)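 Log-two fold change in thermal stability relative to solvent controls is reported from duplicates. For each sample, crude K562 extract from dounce-homogenised pellets in PBS pH 7.4 with 1 mM MgCl2, at 1 mg/mL protein, was treated with 10 μM compound for 30 min. Aliquots heated for 3 min across 48°C-58°C were pooled, brought to 0.5% NP-40 at 4°C and cleared at 21,000xg for 90 min. The supernatant was quantified by TMTpro 16plex LC-MS/MS with channel sums equalised.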

Sequences of proteins named here, by UniProt entry; tags and fusion partners are left off. A change or cut given only in a name is not applied to a line headed by its entry.
UniProt O95271: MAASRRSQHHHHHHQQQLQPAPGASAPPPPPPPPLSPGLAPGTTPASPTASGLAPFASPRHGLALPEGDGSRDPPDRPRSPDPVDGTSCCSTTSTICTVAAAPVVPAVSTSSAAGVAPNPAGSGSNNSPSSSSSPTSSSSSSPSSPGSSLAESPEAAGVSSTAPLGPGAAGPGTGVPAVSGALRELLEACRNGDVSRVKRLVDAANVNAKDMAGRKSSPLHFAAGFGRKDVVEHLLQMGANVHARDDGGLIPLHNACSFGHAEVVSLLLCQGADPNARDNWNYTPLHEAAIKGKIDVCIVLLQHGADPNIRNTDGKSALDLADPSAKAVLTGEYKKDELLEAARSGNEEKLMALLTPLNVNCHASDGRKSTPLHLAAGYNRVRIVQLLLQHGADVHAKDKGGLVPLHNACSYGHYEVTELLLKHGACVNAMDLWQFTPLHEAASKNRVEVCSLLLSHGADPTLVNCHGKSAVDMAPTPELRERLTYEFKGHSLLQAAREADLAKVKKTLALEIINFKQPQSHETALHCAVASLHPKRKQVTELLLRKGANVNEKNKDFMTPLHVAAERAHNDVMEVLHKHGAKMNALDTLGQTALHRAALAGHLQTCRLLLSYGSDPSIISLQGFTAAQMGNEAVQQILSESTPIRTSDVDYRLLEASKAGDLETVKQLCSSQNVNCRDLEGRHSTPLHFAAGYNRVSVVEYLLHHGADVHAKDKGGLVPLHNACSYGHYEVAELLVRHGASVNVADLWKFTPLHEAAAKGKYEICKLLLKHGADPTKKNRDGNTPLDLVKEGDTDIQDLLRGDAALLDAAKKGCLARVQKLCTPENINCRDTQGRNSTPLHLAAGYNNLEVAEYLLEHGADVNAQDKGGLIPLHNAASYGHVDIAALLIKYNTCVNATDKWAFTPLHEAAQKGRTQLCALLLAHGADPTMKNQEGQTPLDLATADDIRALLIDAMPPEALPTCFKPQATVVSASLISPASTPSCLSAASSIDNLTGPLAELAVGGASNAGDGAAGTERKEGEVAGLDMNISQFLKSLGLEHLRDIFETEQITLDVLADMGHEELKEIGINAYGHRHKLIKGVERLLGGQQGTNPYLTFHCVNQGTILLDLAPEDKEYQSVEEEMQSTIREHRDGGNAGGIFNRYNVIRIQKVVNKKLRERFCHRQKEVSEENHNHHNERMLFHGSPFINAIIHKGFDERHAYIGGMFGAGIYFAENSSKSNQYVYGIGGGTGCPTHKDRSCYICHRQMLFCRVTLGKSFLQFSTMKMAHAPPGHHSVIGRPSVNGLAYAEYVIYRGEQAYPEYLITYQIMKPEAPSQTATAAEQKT
UniProt Q12767: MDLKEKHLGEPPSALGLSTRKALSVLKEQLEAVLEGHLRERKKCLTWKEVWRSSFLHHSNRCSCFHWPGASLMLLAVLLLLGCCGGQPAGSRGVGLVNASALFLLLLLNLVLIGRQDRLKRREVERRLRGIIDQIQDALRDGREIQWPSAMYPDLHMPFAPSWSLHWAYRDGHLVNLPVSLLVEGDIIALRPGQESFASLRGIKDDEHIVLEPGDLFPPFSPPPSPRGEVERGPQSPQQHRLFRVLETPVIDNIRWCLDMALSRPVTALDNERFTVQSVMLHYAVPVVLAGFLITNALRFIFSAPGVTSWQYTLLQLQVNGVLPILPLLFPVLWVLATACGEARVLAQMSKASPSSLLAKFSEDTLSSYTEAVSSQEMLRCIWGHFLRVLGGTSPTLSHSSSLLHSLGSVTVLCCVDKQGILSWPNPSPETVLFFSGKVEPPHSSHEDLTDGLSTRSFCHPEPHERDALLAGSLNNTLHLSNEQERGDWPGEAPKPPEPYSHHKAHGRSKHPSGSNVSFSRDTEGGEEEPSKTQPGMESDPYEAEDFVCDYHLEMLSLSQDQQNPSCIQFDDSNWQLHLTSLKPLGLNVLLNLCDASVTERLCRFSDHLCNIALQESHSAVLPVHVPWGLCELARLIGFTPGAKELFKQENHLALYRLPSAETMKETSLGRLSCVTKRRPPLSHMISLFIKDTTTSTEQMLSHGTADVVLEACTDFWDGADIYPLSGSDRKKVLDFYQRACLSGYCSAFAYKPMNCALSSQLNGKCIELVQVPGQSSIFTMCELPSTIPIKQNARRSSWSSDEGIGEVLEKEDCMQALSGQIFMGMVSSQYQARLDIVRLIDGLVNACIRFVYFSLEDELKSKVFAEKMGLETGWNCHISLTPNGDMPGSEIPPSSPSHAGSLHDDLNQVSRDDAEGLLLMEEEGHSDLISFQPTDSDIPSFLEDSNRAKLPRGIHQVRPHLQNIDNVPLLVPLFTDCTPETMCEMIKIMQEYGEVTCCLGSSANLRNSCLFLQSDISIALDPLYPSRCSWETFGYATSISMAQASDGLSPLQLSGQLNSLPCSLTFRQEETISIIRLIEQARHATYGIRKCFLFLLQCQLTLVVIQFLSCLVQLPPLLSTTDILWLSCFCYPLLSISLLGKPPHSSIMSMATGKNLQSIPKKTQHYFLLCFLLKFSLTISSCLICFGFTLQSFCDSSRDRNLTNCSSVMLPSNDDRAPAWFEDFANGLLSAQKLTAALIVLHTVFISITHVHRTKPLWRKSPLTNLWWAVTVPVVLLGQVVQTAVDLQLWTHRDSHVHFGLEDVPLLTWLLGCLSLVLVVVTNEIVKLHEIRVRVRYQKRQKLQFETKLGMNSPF
UniProt Q9BVT8: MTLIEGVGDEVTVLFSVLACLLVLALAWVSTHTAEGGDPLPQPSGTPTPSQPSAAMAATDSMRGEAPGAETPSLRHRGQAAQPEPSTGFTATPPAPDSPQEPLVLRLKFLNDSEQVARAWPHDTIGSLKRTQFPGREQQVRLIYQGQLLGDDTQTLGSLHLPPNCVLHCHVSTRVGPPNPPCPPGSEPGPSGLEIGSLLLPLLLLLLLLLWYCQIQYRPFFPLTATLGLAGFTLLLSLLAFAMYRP
UniProt Q9H1E5: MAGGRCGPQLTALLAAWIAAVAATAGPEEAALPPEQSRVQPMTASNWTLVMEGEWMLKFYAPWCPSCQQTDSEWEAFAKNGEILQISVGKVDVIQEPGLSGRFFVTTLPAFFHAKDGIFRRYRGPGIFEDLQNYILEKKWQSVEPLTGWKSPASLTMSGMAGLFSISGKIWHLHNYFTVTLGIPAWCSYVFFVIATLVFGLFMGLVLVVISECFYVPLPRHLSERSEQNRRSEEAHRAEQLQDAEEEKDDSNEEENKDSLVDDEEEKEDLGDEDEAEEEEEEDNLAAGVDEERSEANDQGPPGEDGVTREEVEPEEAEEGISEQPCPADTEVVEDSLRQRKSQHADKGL
UniProt Q8NCS4: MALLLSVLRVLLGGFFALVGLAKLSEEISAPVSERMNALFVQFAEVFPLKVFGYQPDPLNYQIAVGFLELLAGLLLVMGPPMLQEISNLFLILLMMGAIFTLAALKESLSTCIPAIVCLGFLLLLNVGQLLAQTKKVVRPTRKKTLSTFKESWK
UniProt P06753, whole entry, looked up: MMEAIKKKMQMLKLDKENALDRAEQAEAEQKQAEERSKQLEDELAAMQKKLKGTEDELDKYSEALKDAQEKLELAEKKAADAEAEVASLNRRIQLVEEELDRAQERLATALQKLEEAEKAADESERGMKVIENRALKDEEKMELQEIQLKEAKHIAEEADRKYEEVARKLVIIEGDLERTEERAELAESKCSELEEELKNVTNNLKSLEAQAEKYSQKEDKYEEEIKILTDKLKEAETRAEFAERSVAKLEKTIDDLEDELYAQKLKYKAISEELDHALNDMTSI
UniProt Q9NS69: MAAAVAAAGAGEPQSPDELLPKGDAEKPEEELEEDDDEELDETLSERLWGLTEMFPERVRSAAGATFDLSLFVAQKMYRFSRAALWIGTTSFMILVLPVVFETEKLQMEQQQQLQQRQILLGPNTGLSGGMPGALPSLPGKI
UniProt P62995: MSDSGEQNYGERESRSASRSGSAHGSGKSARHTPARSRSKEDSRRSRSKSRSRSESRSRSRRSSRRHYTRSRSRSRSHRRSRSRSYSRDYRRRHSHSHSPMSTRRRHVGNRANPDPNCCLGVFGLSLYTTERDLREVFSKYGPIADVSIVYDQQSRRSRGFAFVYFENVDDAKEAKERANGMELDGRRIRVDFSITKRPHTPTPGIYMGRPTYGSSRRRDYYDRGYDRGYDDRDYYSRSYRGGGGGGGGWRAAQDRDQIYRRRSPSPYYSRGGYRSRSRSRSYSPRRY
UniProt Q9P0T7: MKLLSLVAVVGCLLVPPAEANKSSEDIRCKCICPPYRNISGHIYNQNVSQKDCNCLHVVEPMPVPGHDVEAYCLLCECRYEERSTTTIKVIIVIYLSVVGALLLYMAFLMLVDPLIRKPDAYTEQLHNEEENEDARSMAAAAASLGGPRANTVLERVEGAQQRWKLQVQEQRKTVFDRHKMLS
UniProt Q15025: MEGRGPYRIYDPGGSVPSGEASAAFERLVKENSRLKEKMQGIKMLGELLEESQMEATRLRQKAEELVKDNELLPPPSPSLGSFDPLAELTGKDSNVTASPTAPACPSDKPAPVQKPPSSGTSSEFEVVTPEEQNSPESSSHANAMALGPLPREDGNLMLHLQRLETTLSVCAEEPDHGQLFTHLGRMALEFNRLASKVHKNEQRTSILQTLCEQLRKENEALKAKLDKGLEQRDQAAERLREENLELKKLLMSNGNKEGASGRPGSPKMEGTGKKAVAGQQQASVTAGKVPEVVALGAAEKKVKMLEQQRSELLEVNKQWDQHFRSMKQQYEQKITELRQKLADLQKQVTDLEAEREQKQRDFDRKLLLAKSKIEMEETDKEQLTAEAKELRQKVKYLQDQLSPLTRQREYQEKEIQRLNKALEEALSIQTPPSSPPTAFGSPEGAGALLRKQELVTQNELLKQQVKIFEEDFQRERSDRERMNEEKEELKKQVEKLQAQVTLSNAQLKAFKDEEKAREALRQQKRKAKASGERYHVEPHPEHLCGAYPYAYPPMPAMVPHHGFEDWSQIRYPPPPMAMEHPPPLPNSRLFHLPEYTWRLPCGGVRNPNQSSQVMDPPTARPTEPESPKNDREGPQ
UniProt Q96S44: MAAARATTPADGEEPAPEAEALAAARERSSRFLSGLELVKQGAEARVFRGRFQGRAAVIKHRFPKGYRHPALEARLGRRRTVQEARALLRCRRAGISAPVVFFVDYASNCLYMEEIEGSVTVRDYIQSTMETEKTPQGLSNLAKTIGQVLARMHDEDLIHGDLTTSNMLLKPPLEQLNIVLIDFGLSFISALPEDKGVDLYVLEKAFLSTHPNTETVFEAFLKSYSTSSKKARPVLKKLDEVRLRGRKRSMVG
UniProt Q9H3S4: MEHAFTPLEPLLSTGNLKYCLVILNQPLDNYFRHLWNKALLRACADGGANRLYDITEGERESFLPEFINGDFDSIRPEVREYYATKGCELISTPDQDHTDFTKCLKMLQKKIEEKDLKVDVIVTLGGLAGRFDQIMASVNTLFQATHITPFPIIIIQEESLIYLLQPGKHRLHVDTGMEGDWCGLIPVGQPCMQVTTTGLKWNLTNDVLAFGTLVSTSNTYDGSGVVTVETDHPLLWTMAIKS
UniProt Q96A57: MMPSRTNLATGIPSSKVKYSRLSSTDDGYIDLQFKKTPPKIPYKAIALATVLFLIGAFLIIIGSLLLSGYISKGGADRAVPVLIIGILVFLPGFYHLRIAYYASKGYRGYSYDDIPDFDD
UniProt Q96B49: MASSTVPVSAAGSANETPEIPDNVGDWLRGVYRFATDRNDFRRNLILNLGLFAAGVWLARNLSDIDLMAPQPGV
UniProt Q71RG4: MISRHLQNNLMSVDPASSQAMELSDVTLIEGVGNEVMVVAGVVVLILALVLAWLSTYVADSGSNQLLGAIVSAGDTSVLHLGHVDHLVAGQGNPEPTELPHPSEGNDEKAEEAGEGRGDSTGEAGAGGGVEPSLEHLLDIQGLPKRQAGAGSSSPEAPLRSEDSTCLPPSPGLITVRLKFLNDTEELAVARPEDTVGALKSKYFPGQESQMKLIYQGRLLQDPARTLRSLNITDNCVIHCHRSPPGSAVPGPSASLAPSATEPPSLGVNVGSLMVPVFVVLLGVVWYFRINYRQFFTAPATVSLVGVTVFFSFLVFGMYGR
UniProt Q6ZT21: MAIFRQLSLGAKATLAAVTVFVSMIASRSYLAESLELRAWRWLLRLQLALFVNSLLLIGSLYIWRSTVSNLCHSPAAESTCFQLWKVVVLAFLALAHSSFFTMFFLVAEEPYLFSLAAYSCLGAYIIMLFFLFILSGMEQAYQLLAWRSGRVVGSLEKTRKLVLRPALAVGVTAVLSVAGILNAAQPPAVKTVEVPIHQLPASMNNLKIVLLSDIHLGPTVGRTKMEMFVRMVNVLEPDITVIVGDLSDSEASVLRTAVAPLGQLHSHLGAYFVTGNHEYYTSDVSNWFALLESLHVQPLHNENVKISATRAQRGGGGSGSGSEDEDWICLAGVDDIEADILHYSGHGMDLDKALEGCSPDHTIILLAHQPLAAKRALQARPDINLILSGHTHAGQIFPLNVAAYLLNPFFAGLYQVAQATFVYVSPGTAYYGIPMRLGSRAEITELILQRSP
UniProt P02585, whole entry, looked up: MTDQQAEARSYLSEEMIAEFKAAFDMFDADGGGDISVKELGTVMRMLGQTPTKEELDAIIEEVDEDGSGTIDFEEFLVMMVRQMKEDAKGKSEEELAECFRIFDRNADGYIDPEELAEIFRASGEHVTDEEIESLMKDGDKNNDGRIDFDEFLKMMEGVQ

Target	log2 fold change
TNKS (UniProt O95271)	inactive: -0.005
TNIK (UniProt C9J338)	inactive: -0.071
TMEM94 isoform 2 (UniProt Q12767)	inactive: -0.005
TMUB1 (UniProt Q9BVT8)	inactive: -0.132
TMOD2 (UniProt Q9NZR1)	inactive: -0.007
TPRG1L (UniProt Q5T0D9)	inactive: -0.007
TMX4 (UniProt Q9H1E5)	inactive: 0.025
TMEM35B (UniProt Q8NCS4)	inactive: -0.044
TPM3 isoform 3 (UniProt P06753)	inactive: -0.006
TOMM22 (UniProt Q9NS69)	inactive: -0.011

compound: C1=CC2=NC=CN=C2C=C1/C=C/3\C(=O)NC(=O)S3; experiment: as above
Procedure, shortened: as §1

Target	log2 fold change
TRA2B (UniProt P62995)	inactive: -0.026
TMEM9 (UniProt Q9P0T7)	inactive: 0.056
TNIP1 (UniProt Q15025)	inactive: -0.023
TP53RK (UniProt Q96S44)	active: -0.37
TOPAZ1 (UniProt Q8N9V7)	inactive: -0.062
TPCN1 isoform 3 (UniProt Q9ULQ1)	inactive: 0.064
TNRC6A (UniProt Q8NDV7)	inactive: 0.088
TPM1 (UniProt H7BYY1)	inactive: -0.008
TPK1 (UniProt Q9H3S4)	inactive: 0.037
TMEM8A (UniProt Q9HCN3)	inactive: -0.344
TMEM230 isoform 2 (UniProt Q96A57)	inactive: -0.179
TPM3 (UniProt P06753)	inactive: -0.012
TOMM6 (UniProt Q96B49)	inactive: -0.077
TMUB2 (UniProt Q71RG4)	inactive: -0.166
TOR1AIP1 (UniProt Q5JTV8)	inactive: 0.019
TOM1 (UniProt O60784)	inactive: -0.016
TMPPE (UniProt Q6ZT21)	inactive: 0.05
TRA2A (UniProt Q13595)	inactive: -0.137
TNIP2 (UniProt Q8NFZ5)	inactive: 0.076
TNIK (UniProt C9J338)	inactive: -0.064
TMEM94 isoform 2 (UniProt Q12767)	inactive: -0.005
TMUB1 (UniProt Q9BVT8)	inactive: -0.197
TMOD2 (UniProt Q9NZR1)	inactive: -0.024
TMX4 (UniProt Q9H1E5)	inactive: -0.015
TOMM22 (UniProt Q9NS69)	inactive: -0.015

compound: C1=CC=C(C=C1)C2=NC(=C(N2)C3=CC=NC=C3)C4=CC(=C(C=C4)Cl)O; experiment: as above
Procedure, shortened: as §1

Target	log2 fold change
TRA2B (UniProt P62995)	inactive: -0.054
TMEM9 (UniProt Q9P0T7)	inactive: 0.045
TNIP1 (UniProt Q15025)	inactive: -0.008
TP53RK (UniProt Q96S44)	inactive: -0.03
TOPAZ1 (UniProt Q8N9V7)	inactive: -0.553
TPCN1 isoform 3 (UniProt Q9ULQ1)	inactive: 0.02
TMEM19 (UniProt Q96HH6)	inactive: -0.042
TPM1 (UniProt H7BYY1)	inactive: 0.091
TPK1 (UniProt Q9H3S4)	inactive: -0.061
TMEM230 isoform 2 (UniProt Q96A57)	inactive: -0.211
TPM3 (UniProt P06753)	inactive: 0.014
TMUB2 (UniProt Q71RG4)	inactive: -0.036
TMEM248 (UniProt Q9NWD8)	inactive: -0.148
TMPPE (UniProt Q6ZT21)	inactive: -0.023
TRA2A (UniProt Q13595)	inactive: 0.038
TNNC2 (UniProt P02585)	inactive: -0.043
TNKS (UniProt O95271)	inactive: 0.052
TMEM94 isoform 2 (UniProt Q12767)	inactive: -0.225
TMUB1 (UniProt Q9BVT8)	inactive: -0.056
TMOD2 (UniProt Q9NZR1)	inactive: 0.004
TPRG1L (UniProt Q5T0D9)	inactive: 0.211
TMX4 (UniProt Q9H1E5)	inactive: -0.094
TMEM35B (UniProt Q8NCS4)	inactive: -0.007
TPM3 isoform 3 (UniProt P06753)	inactive: -0.033
TOMM22 (UniProt Q9NS69)	inactive: -0.022

compound: C1=CC=C2C(=C1)C3=NNC4=CC=CC(=C43)C2=O; experiment: as above
Procedure, shortened: as §1

Target	log2 fold change
TRA2B (UniProt P62995)	inactive: -0.076
TMEM9 (UniProt Q9P0T7)	inactive: -0.001
TNIP1 (UniProt Q15025)	inactive: -0.019
TP53RK (UniProt Q96S44)	inactive: 0.042
TOPAZ1 (UniProt Q8N9V7)	inactive: -0.063
TPCN1 isoform 3 (UniProt Q9ULQ1)	inactive: 0.037
TPBG (UniProt Q13641)	inactive: -0.08
TMEM19 (UniProt Q96HH6)	inactive: 0.01
TNRC6A (UniProt Q8NDV7)	inactive: -0.021
TPM1 (UniProt H7BYY1)	inactive: -0.041
TPK1 (UniProt Q9H3S4)	inactive: -0.069
TMEM8A (UniProt Q9HCN3)	inactive: 0.079
TMEM230 isoform 2 (UniProt Q96A57)	inactive: -0.012
TPM3 (UniProt P06753)	inactive: 0.068
TOMM6 (UniProt Q96B49)	inactive: 0.005
TMUB2 (UniProt Q71RG4)	inactive: -0.064
TOR1AIP1 (UniProt Q5JTV8)	inactive: 0.089

Target	log2 fold change
TOM1 (UniProt O60784)	inactive: 0.013
TMEM248 (UniProt Q9NWD8)	inactive: -0.062
TMPPE (UniProt Q6ZT21)	inactive: -0.011
TRA2A (UniProt Q13595)	inactive: -0.024
TNIP2 (UniProt Q8NFZ5)	inactive: -0.304
TNNC2 (UniProt P02585)	inactive: 0.031
TNKS (UniProt O95271)	inactive: -0.01
TNIK (UniProt C9J338)	inactive: -0.112
TMEM94 isoform 2 (UniProt Q12767)	inactive: -0.215
TMUB1 (UniProt Q9BVT8)	inactive: 0.022
TMOD2 (UniProt Q9NZR1)	inactive: -0.058
TPRG1L (UniProt Q5T0D9)	inactive: -0.134
TMX4 (UniProt Q9H1E5)	inactive: -0.035
TMEM35B (UniProt Q8NCS4)	inactive: -0.027
TPM3 isoform 3 (UniProt P06753)	inactive: 0.08
TOMM22 (UniProt Q9NS69)	inactive: 0.091
